Measured values from the supplement of paper PMC3334620.
Over roughly 33,000 sequences, “E-score (-0.5 to 0.5)” has its median near -0.0059; the highest 2% begin near 0.26. Some of the results follow.

Target: T1, Cin5 (UniProt P40917)
T1 sequence: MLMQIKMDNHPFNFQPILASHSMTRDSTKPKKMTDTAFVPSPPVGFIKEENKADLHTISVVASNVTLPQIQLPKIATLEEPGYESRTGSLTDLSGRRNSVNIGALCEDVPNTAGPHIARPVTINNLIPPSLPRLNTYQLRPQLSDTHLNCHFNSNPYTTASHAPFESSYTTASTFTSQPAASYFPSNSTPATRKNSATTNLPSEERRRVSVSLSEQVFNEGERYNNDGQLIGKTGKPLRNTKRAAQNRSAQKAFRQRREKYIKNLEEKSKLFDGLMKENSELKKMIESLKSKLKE
Assay: PBM E-score (8-mer binding enrichment) (E-score (-0.5 to 0.5)); higher = stronger / more preferred TF binding
Conditions: protein concentration: 100 nM; construct: GST-full length
Method in brief: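 Each ungapped eight-base word and its reverse complement, pooled, received an E-score from the Universal PBM Analysis Suite. Underlying scans, normalised with masliner, recorded fluorescent anti-GST bound to GST-tagged yeast transcription factors. These were applied at about 100-200 nM to universal all-10-mer Agilent arrays double-stranded by primer extension.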

Row | Sequence | PBM E-score
1 | ACCTCACG | -0.0502
2 | GGTATCGA | 0.215
3 | CTAATGCC | -0.0696
4 | CGTGAACC | -0.081
5 | ACAGTAGG | -0.00703
6 | AGCGCACG | -0.102
7 | ATTCAGTG | 0.211
8 | AGACTATC | -0.154
9 | AGGCGTGC | 0.039
10 | TAGGGAGA | 0.0366
11 | ATTAGTTA | 0.315
12 | CAGCCGAC | -0.257
13 | TCCTTAGA | -0.305
14 | AGACCTGA | -0.0286
15 | CACGTCCA | -0.203
16 | ATCGCGCA | -0.074
17 | GAACACAA | 0.00199
18 | GCCTCTCC | -0.214
19 | AATATTAG | 0.215
20 | GTCATCAC | 0.108
21 | ATGCTGAA | 0.0327
22 | AAGCCATC | 0.087
23 | ATCCCCTG | -0.0927
24 | ACTACAGA | 0.162
25 | ACTGCTTG | -0.183

Row | Sequence | PBM E-score
26 | TGATATAA | 0.207
27 | GAGGGAGC | -0.24
28 | CCGGCGAG | -0.111
29 | AGGTTTAA | 0.0387
30 | AAAACGAG | -0.125
31 | CGTCAGTA | -0.0868
32 | AGATACAG | 0.0747
33 | GATCTCGA | -0.0371
34 | ACTGGCAG | -0.148
35 | AGGCCTTC | -0.0672
36 | CGACCTTC | 0.0416
37 | ACCTGAGT | 0.0401
38 | ATGGGTCG | 0.0303
39 | GACATGCA | -0.0618
40 | GTCGCATA | 0.139
41 | CGACAGCA | -0.0236
42 | GCATGTGA | -0.0288
43 | AATTCCAA | 0.0946
44 | CGGCGTAA | 0.051
45 | CTCATACA | 0.0491
46 | CTTCCAGA | -0.0618
47 | CCTCACTA | 0.00837
48 | AAACAGAA | 0.111
49 | ATCGGCCC | -0.0144
50 | TATTAGGA | -0.0106

Row | Sequence | PBM E-score
51 | CCTTTTGC | -0.0665
52 | ACTTTAAG | 0.154
53 | ACGCCTGC | -0.234
54 | GCATCCGC | 0.0057
55 | AGGATCCC | 0.0569
56 | GCTCCTAA | -0.186
57 | ACACGCAG | -0.134
58 | GGGATAAA | 0.156
59 | GCAACTGA | 0.0933
60 | GTCGGAAC | 0.0629
61 | GCTCAGAA | -0.0354
62 | GGTCAAAC | -0.0543
63 | CCCTCGCA | -0.0467
64 | GGAGATAA | 0.0022
65 | ATAGTGCC | -0.0727
66 | CCCTTGTC | -0.128
67 | CCGCACGC | -0.107
68 | ACCTTACA | -0.0412
69 | TAAGGCTA | -0.103
70 | AAGAGATT | 0.122
71 | GCGACGAA | -0.00723
72 | ACGTAAAA | 0.166
73 | CCTTTAAA | -0.236
74 | AAGCAATG | 0.197
75 | GGTTACTA | 0.119

Row | Sequence | PBM E-score
76 | AACACATC | 0.00921
77 | ATCCGACG | 0.0285
78 | AGAGCGCT | -0.0784
79 | AACTGACG | -0.124
80 | CCGTTCGC | -0.127
81 | CACATAAC | -0.00529
82 | AGTTGAAG | -0.00489
83 | CCGCAGCC | -0.2
84 | AAGCAACC | 0.138
85 | ACACCCTA | 0.00876
86 | ATCGGAAT | 0.151
87 | ACATAAGG | 0.194
88 | CCTCTGGA | -0.0661
89 | GCCTGTCA | -0.0974
90 | AGGACGAT | -0.0283
91 | GGACGGTA | -0.135
92 | CACGCGAC | -0.0294
93 | AGGAACCG | -0.111
94 | CGCGCATA | 0.021
95 | TAACCTTA | -0.021
96 | GGTGGTGA | 0.00308
97 | CGTGTTCA | 0.0386
98 | AATATACA | 0.23
99 | ATTTAAAC | 0.217
100 | AGTCACTG | -0.142

Row | Sequence | PBM E-score
101 | CTCCTTAA | -0.192
102 | GGCTGGAC | -0.33
103 | ACGAACTC | 0.00437
104 | ATATGTCG | 0.0154
105 | ACAGTGCT | -0.0105
106 | ATCTCAAT | 0.186
107 | CAGGACGG | -0.232
108 | ACGCTAAT | 0.0699
109 | CTGTATTC | 0.131
110 | GCTCAAGA | -0.244
111 | GGTGTGTA | -0.0653
112 | CCGAATCC | 0.121
113 | CCGATGAG | -0.0359
114 | CCATTGCC | 0.044
115 | CGCTCGCC | -0.0405
116 | AGTCTCCA | -0.156
117 | CTCCGCGA | 0.0551
118 | CTCTTGCA | -0.088
119 | TAATGGCA | 0.128
120 | ATCTCACC | 0.0981
121 | ACCTTGAC | 0.0353
122 | ACATCCTC | -0.0642
123 | ACCATGAT | 0.0535
124 | CTAGTCAA | 0.0271
125 | CGGCCAAG | -0.069

From no. 111 as far as 112, copied from above:
Row | Sequence | PBM E-score
111 | GGTGTGTA | -0.0653
112 | CCGAATCC | 0.121

Copied from the list:
PBM E-score with ATATGTCG reads 0.0154
PBM E-score with CTAGTCAA reads 0.0271
PBM E-score with GGTGTGTA reads -0.0653

The list continues:

Row | Sequence | PBM E-score
126 | GGGTAGAC | -0.243
127 | TTGGCAAA | 0.0581
128 | AAACGTGG | -0.095
129 | AGAGAAAT | 0.0621
130 | GAGGTGCA | -0.0183
131 | AAAGCGCC | -0.066
132 | CGTTCCTA | -0.167
133 | AAATGAAT | 0.0636
134 | AGATAATA | 0.237
135 | ACTGGATC | 0.0505
136 | CGCCACTC | -0.00075
137 | CAGATCAG | 0.115
138 | ATACTGCA | 0.156
139 | CGACTATA | 0.107
140 | CTATCCAC | -0.00165
141 | ACACACGA | 0.135
142 | AGCCCTAA | -0.117
143 | AGTCTCGG | -0.221
144 | ATGGCATA | 0.204
145 | AGCCCATG | 0.0563
146 | AGGATAGA | 0.0885
147 | CCTAATCA | 0.221
148 | AGATCCCC | -0.00692
149 | CTTATATC | 0.232
150 | CTCTTAAA | 0.0655

Row | Sequence | PBM E-score
151 | ATTACTTC | 0.126
152 | CCTTTGGA | -0.277
153 | ATGTCCCC | -0.0546
154 | CACTCACC | -0.111
155 | AAGGCTCT | -0.175
156 | AGTCCCCC | -0.394
157 | AGAAGAAT | -0.015
158 | ACGTGGCA | -0.232
159 | CCGCCTCG | -0.095
160 | AGGTTGTA | 0.143
161 | ACCCACGG | -0.252
162 | CGGGCTTC | -0.242
163 | ACAGGAAC | 0.0154
164 | TTCATAAA | 0.0384
165 | GGCGACGA | -0.143
166 | AAATGCGA | 0.0734
167 | ATCTCGGA | 0.0536
168 | GACTTATA | 0.209
169 | GCATTGTA | 0.0783
170 | AGTGTCGA | -0.175
171 | CAATTGTC | 0.119
172 | ACACTACG | 0.0298
